Laboratory results taken from patent publication US5854002A (Rhone Poulenc, Inc., priority 1996, dated 1998).

Experiments:
[1] = molecular target: Rat brain; assay: [3H] muscimol binding, rat brain (previous assays of the inventors)
Source text: Table 2 presents the Kd and Bmax values for [^3 H] muscimol binding. Data for housefly heads are from Lunt et al. (1985) Neurochem. Int. 7:751. Data for rat brain were obtained from previous assays performed by the present inventors using standard methods.
Table 3 presents IC50 values for the tested compounds which include known GABAA agonists and antagonists, GABAB agonists and antagonists, and a GABAC agonist. […]

[2] = system: Housefly heads; details: half-maximal displacement of [3H] muscimol, from Lunt et al. (1985); read-out: IC50, Fly Heads; cited from earlier work

In the case of `NCCCC(=O)O` [GABA, γ-aminobutyric acid], the IC50 [1] is listed as 255 nM and the IC50 [2] is listed as 40 nM.
